Experimental findings from patent US20240165253A1 (REMEGEN, published 2024) are described below.

Sequences of proteins named here, by UniProt entry; tags and fusion partners are left off. Residues count along the entry.
UniProt P08581, residues 25-932: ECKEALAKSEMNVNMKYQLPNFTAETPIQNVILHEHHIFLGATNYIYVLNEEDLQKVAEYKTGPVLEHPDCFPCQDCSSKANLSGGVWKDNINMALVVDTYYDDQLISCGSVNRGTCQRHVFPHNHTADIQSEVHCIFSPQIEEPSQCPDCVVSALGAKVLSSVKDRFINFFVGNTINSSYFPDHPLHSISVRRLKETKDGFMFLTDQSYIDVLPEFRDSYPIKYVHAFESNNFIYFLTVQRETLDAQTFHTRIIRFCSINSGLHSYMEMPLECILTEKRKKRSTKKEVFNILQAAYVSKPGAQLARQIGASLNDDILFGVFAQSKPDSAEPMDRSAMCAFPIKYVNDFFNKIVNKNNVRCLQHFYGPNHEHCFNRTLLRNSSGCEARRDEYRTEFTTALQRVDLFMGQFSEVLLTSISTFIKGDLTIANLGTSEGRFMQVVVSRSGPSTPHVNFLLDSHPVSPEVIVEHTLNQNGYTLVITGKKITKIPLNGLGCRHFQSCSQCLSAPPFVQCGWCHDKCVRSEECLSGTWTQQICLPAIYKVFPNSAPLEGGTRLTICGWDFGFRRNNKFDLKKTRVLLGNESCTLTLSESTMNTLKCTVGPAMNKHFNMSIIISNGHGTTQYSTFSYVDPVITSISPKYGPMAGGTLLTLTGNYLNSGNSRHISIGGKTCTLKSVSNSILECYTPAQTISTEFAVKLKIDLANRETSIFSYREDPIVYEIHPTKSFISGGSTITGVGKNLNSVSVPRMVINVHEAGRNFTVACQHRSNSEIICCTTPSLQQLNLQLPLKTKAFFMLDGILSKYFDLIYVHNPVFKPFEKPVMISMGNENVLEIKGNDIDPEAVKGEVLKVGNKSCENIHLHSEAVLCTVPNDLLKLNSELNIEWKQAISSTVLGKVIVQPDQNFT

The target of assay [1] is T1, c-Met protein (UniProt P08581 25-932, limits assumed).
T1 construct: The construct is not described; also called c-Met antigen
In words: ELISA, plate coated with c-Met protein. For orientation: ELISA stands for enzyme-linked immunosorbent assay.

Assay [2] deals with T2, soluble ED protein (UniProt P08581 25-932, limits assumed).
T2 construct: domain: ED; It is read here as the c-Met extracellular domain because the antibodies are anti-c-Met
In words: ELISA, plate coated with soluble ED protein.

Results are given in words; binding and its absence hold for the method and conditions named. Some results given as binding are weak or reduced against the parent protein; the word gives no strength.

B1: anti-c-Met humanized antibody AAJ8D6 (antibody, human IgG1, kappa, V domains shown)
VH: QVQLEQSGPEVVKPGASVKVSCKASGYSFTSYWMHWVRQAPGQGLEWMGMIDPSDSESRLNQKFKDRVTMTVDTPTSTVYMELSSPRSEDTAVYYCARSGYHGTSYWYFDVWGQGTLVTVSS
VL: DIVMTQSPLSLPVTPGEPASISCRSSKSLLHSDGITYLYWYLQKPGQSPQLLIYQMSNLASGVPDRFSGSGSGTDFTLKISRVEAEDVGVYYCAQNLELPPTFGGGTKVEIKR
notes: also called AAJ8D6 antibody
Consider B1, for which the binding result in assay [1] and in assay [2] was “binds” in each case.
